# Test results: PMC5996148
# Values joined by “and” are separate entries in the source; they are usually repeats but may differ in a detail not shown here. Equal values may be shown once. The list shows a part of the results.
# Legend:
# Assay in all cases: protein microarray (ProtoArray v5.0), streptavidin-Alexa Fluor 647
# Conditions in all cases: 3'-biotin; 20 mM Tris (pH 7.5), 5 mM MgCl2, 100 mM KCl, 0.1% Tween-20, A/T-rich and random oligonucleotide blockers; temperature not stated; high values mean tight binding
# SF3A3 (human) = tested on: SF3A3 (human)
# SF3B3 (human) = tested on: SF3B3 (human)
# SFT2D1 (human) = tested on: SFT2D1 (human)
# SFXN1 (human) = tested on: SFXN1 (human)
# SFXN2 (human) = tested on: SFXN2 (human)
# SFXN3 (human) = tested on: SFXN3 (human)
# SGCA (human) = tested on: SGCA (human)
# SGK2 (human) = tested on: SGK2 (human)
# SGTA (human) = tested on: SGTA (human)
# SH2B1 (human) = tested on: SH2B1 (human)
sequence,measurement,setting,value
GGGAGGCTGAGGCAGG [G4-1 biotinylated (PQS2)],binding signal,SF3A3 (human),-0.346 z-score
same,binding signal,SF3B3 (human),-0.319 z-score and -0.32 z-score
same,binding signal,SFT2D1 (human),-0.337 z-score
same,binding signal,SFXN1 (human),-0.346 z-score and -0.272 z-score
same,binding signal,SFXN2 (human),-0.272 z-score
same,binding signal,SFXN3 (human),-0.348 z-score
same,binding signal,SGCA (human),-0.326 z-score
same,binding signal,SGK2 (human),-0.318 z-score
same,binding signal,SGTA (human),-0.352 z-score
same,binding signal,SH2B1 (human),-0.345 z-score

# 2 records picked at random from those above, as already listed:
sequence,measurement,setting,value
GGGAGGCTGAGGCAGG [G4-1 biotinylated (PQS2)],binding signal,SGTA (human),-0.352 z-score
same,binding signal,SFXN2 (human),-0.272 z-score
